Data from the supplement of paper PMC7238544.
Structures can show the parent of a compound that is named as a salt. ± gives the standard deviation of the averaged measurements. The list shows a part of the results. The data scatter; read single values as rough.

How the values were obtained:
hAMSC donor 1 [1] = experiment: Hoechst total cell count ratio vs vehicle control; higher = more cells (less toxicity)
hAMSC donor 2 [2] = experiment: as above
hAMSC donor 1 [3] = experiment: transgenic luciferase activity (RLU/mg protein) fold change vs vehicle control (ratio); higher = more transgene expression
hAMSC donor 2 [4] = experiment: as above
hAMSC donor 1 [5] = experiment: transfection efficiency (EGFP+ cells / Hoechst count) fold change vs vehicle control (ratio); hAMSC are human adipose-derived mesenchymal stem cells given an EGFP-luciferase plasmid by lipofection; higher = enhanced transfection
hAMSC donor 2 [6] = experiment: as above
[7] = priming compound concentration 0.2 µM
[8] = priming compound concentration 1.7 µM
[9] = priming compound concentration 13 µM

Compound	Hoechst total cell count ratio (hAMSC donor 1 [1]; [7])	Hoechst total cell count ratio (hAMSC donor 1 [1]; [8])	Hoechst total cell count ratio (hAMSC donor 1 [1]; [9])	Hoechst total cell count ratio (hAMSC donor 2 [2]; [7])	Hoechst total cell count ratio (hAMSC donor 2 [2]; [8])	Hoechst total cell count ratio (hAMSC donor 2 [2]; [9])	transgenic luciferase activity (hAMSC donor 1 [3]; [8])	transgenic luciferase activity (hAMSC donor 1 [3]; [9])	transgenic luciferase activity (hAMSC donor 2 [4]; [7])	transgenic luciferase activity (hAMSC donor 2 [4]; [8])	transgenic luciferase activity (hAMSC donor 2 [4]; [9])	transfection efficiency (hAMSC donor 1 [5]; [7])	transfection efficiency (hAMSC donor 1 [5]; [8])	transfection efficiency (hAMSC donor 1 [5]; [9])	transfection efficiency (hAMSC donor 2 [6]; [7])	transfection efficiency (hAMSC donor 2 [6]; [8])	transfection efficiency (hAMSC donor 2 [6]; [9])	transgenic luciferase activity (hAMSC donor 1 [3]; [7])
C[C@]12CCC(=O)C=C1CC[C@@H]1[C@@H]2[C@@H](O)C[C@@]2(C)[C@H]1CC[C@]2(O)C(=O)CO [Hydrocortisone]	1.48 ± 0.14	1.3 ± 0.13	1.47 ± 0.091	1.21 ± 0.075	1.21 ± 0.065	1.3 ± 0.082	1.79 ± 1.3	3.64 ± 0.24	1.11 ± 0.19	1.84 ± 0.26	2.28 ± 0.23	0.964 ± 0.34	1.37 ± 0.3	1.44 ± 0.21	0.977 ± 0.073	1.346 ± 0.012	1.34 ± 0.1	
CC(C)c1ccc2oc3nc(N)c(C(=O)O)cc3c(=O)c2c1 [Amlexanox]	1.25 ± 0.23	1.06 ± 0.11	1.25 ± 0.055	1.05 ± 0.13	1.44 ± 0.054	1.17 ± 0.18	0.471 ± 0.27	0.677 ± 0.42	0.358 ± 0.14	0.983 ± 0.2	1.18 ± 0.7	0.975 ± 0.09	1.6 ± 0.39	1.23 ± 0.38	1.1 ± 0.12	1.02 ± 0.049	1.12 ± 0.23	
C[C@@H]1C[C@H]2[C@@H]3CCC4=CC(=O)C=C[C@]4(C)[C@@]3(F)[C@@H](O)C[C@]2(C)[C@@]1(O)C(=O)CO [Dexamethasone]	1.57 ± 0.11	1.34 ± 0.17	1.39 ± 0.13	1.19 ± 0.036	0.9753 ± 0.0025	1.21 ± 0.053	12.8 ± 2.5	7.15 ± 0.75	1.62 ± 0.63	3.05 ± 0.5	4.39 ± 0.7	1.34 ± 0.28	2.91 ± 0.13	1.94 ± 0.24	1.14 ± 0.074	1.94 ± 0.19	1.79 ± 0.097	
Cc1ccnc2c1NC(=O)c1cccnc1N2C1CC1 [Nevirapine]	1.34 ± 0.089	1.16 ± 0.16	1.29 ± 0.28	1.31 ± 0.11	1.05 ± 0.032	1.3 ± 0.17	1.16 ± 0.083	1.06 ± 0.25	0.392 ± 0.16	0.705 ± 0.032	0.926 ± 0.23	0.984 ± 0.27	1.35 ± 0.22	1.53 ± 0.39	0.834 ± 0.055	0.942 ± 0.068	1.28 ± 0.059	
C[C@@H]1C[C@H]2[C@@H]3CCC4=CC(=O)C=C[C@]4(C)[C@@]3(F)[C@@H](O)C[C@]2(C)[C@H]1C(=O)CO [Desoximetasone]	1.52 ± 0.17	1.24 ± 0.02	1.33 ± 0.19	1.12 ± 0.09	1.39 ± 0.02	1.12 ± 0.19	8.69 ± 0.88	7.22 ± 3.2	1.49 ± 0.57	4.77 ± 0.45	4.26 ± 1.3	1.39 ± 0.45	2.11 ± 0.14	3.49 ± 0.33	1.58 ± 0.23	1.78 ± 0.02	1.61 ± 0.41	
CC(COc1ccccc1)N(CCCl)Cc1ccccc1 (centres undefined) [Phenoxybenzamine hydrochloride]	1.68 ± 0.047	1.13 ± 0.049	1.67 ± 0.15	1.17 ± 0.027	1.16 ± 0.041	1.17 ± 0.24	0.779 ± 0.095	0.57 ± 0.33	0.849 ± 0.14	0.574 ± 0.044	0.615 ± 0.045	0.678 ± 0.11	1.18 ± 0.1	0.919 ± 0.1	0.836 ± 0.072	0.977 ± 0.31	1.11 ± 0.055	
CO/N=C(\C(=O)N[C@@H]1C(=O)N2C(C(=O)O)=C(COC(C)=O)CS[C@H]12)c1csc(N)n1 [Cefotaxime sodium]	1.01 ± 0.087	1.24 ± 0.12	1.31 ± 0.18	1.33 ± 0.15	1.28 ± 0.053	1.46 ± 0.11	0.418 ± 0.19	1.87 ± 0.87	0.951 ± 0.15	1.13 ± 0.05	0.675 ± 0.2	1.17 ± 0.37	1.36 ± 0.44	0.596 ± 0.17	0.931 ± 0.083	1.03 ± 0.17	1.18 ± 0.18	
Cc1ccc(C)c(OCCCC(C)(C)C(=O)O)c1 [Gemfibrozil]	1.25 ± 0.23	1.38 ± 0.2	1.26 ± 0.16	1.21 ± 0.12	0.907 ± 0.26	1.03 ± 0.16		6.95 ± 2.3	0.666 ± 0.08	0.345 ± 0.079		1.36 ± 0.59	1.05 ± 0.22	1.47 ± 0.071	0.879 ± 0.099	1.2 ± 0.16	1.27 ± 0.21	0.508 ± 0.1
C[C@@H]1C[C@H]2[C@@H]3CCC4=CC(=O)C=C[C@]4(C)[C@@]3(F)[C@@H](O)C[C@]2(C)[C@@]1(O)C(=O)COP(=O)(O)O [Dexamethasone sodium phosphate]	1.28 ± 0.12	1.29 ± 0.16	1.17 ± 0.14	1.31 ± 0.4	0.958 ± 0.031	1.07 ± 0.056	1.31 ± 0.13	11.1 ± 2.9	2.48 ± 0.89	4.0071 ± 0.0027	3.71 ± 0.47	1.01 ± 0.15	2.54 ± 0.63	2.56 ± 0.54	1.5 ± 0.31	2.21 ± 0.076	1.93 ± 0.22	
O=C1CCc2cc(OCCCCc3nnnn3C3CCCCC3)ccc2N1 [Cilostazol]	1.06 ± 0.066	1.25 ± 0.037	1.25 ± 0.074	1.07 ± 0.061	1.15 ± 0.064	1.52 ± 0.044	0.212 ± 0.014	0.968 ± 0.44	1.06 ± 0.15	0.862 ± 0.19	0.494 ± 0.076	1.82 ± 0.38	1.29 ± 0.14	0.574 ± 0.071	1.37 ± 0.14	0.939 ± 0.024	0.683 ± 0.067	
CO[C@@]1(NC(=O)Cc2cccs2)C(=O)N2C(C(=O)O)=C(COC(N)=O)CS[C@@H]21 [Cefoxitin sodium]	0.988 ± 0.035	1.26 ± 0.14	0.932 ± 0.088	0.869 ± 0.1	1.78 ± 0.28	1.17 ± 0.38	0.924 ± 0.51		0.533 ± 0.087	0.887 ± 0.18	0.651 ± 0.35		1.74 ± 0.7	0.935 ± 0.14	1.52 ± 0.43	0.878 ± 0.062	1.2 ± 0.38	0.566 ± 0.17
Oc1ccc(/C=C/c2cc(O)cc(O)c2)cc1 [Resveratrol]	1.3 ± 0.14	1.27 ± 0.11	1.26 ± 0.18	1.16 ± 0.095	1.21 ± 0.039	1.19 ± 0.14	4.25 ± 0.37		0.714 ± 0.3	1.38 ± 0.23	2.26 ± 0.5	1.04 ± 0.14	1.19 ± 0.22	1.26 ± 0.16	1.11 ± 0.084	1.32 ± 0.11	1.5 ± 0.45	0.759 ± 0.084
Nc1ccc(O)c(C(=O)O)c1 [Mesalamine]	0.959 ± 0.075	1.28 ± 0.034	1.17 ± 0.1	1.28 ± 0.15	0.841 ± 0.086	0.989 ± 0.035	0.257 ± 0.073	1.06 ± 0.23	1.27 ± 0.12	0.93 ± 0.13	0.77 ± 0.28	0.68 ± 0.31	0.971 ± 0.29	0.571 ± 0.11	0.747 ± 0.052	1.4 ± 0.18	1.12 ± 0.23	

2 entries picked at random from those above:
Compound	Hoechst total cell count ratio (hAMSC donor 1 [1]; [7])	Hoechst total cell count ratio (hAMSC donor 1 [1]; [8])	Hoechst total cell count ratio (hAMSC donor 1 [1]; [9])	Hoechst total cell count ratio (hAMSC donor 2 [2]; [7])	Hoechst total cell count ratio (hAMSC donor 2 [2]; [8])	Hoechst total cell count ratio (hAMSC donor 2 [2]; [9])	transgenic luciferase activity (hAMSC donor 1 [3]; [8])	transgenic luciferase activity (hAMSC donor 1 [3]; [9])	transgenic luciferase activity (hAMSC donor 2 [4]; [7])	transgenic luciferase activity (hAMSC donor 2 [4]; [8])	transgenic luciferase activity (hAMSC donor 2 [4]; [9])	transfection efficiency (hAMSC donor 1 [5]; [7])	transfection efficiency (hAMSC donor 1 [5]; [8])	transfection efficiency (hAMSC donor 1 [5]; [9])	transfection efficiency (hAMSC donor 2 [6]; [7])	transfection efficiency (hAMSC donor 2 [6]; [8])	transfection efficiency (hAMSC donor 2 [6]; [9])	transgenic luciferase activity (hAMSC donor 1 [3]; [7])
C[C@@H]1C[C@H]2[C@@H]3CCC4=CC(=O)C=C[C@]4(C)[C@@]3(F)[C@@H](O)C[C@]2(C)[C@H]1C(=O)CO [Desoximetasone]	1.52 ± 0.17	1.24 ± 0.02	1.33 ± 0.19	1.12 ± 0.09	1.39 ± 0.02	1.12 ± 0.19	8.69 ± 0.88	7.22 ± 3.2	1.49 ± 0.57	4.77 ± 0.45	4.26 ± 1.3	1.39 ± 0.45	2.11 ± 0.14	3.49 ± 0.33	1.58 ± 0.23	1.78 ± 0.02	1.61 ± 0.41	
C[C@]12CCC(=O)C=C1CC[C@@H]1[C@@H]2[C@@H](O)C[C@@]2(C)[C@H]1CC[C@]2(O)C(=O)CO [Hydrocortisone]	1.48 ± 0.14	1.3 ± 0.13	1.47 ± 0.091	1.21 ± 0.075	1.21 ± 0.065	1.3 ± 0.082	1.79 ± 1.3	3.64 ± 0.24	1.11 ± 0.19	1.84 ± 0.26	2.28 ± 0.23	0.964 ± 0.34	1.37 ± 0.3	1.44 ± 0.21	0.977 ± 0.073	1.346 ± 0.012	1.34 ± 0.1	
